Reference: the supplement of paper PMC6411743
± gives the standard deviation of the averaged measurements. The list shows a part of the results.

Amino acid sequences for entries named in this document (tags omitted). A change or cut given only in a name is not applied to a line headed by its entry.
UniProt Q6UWP7: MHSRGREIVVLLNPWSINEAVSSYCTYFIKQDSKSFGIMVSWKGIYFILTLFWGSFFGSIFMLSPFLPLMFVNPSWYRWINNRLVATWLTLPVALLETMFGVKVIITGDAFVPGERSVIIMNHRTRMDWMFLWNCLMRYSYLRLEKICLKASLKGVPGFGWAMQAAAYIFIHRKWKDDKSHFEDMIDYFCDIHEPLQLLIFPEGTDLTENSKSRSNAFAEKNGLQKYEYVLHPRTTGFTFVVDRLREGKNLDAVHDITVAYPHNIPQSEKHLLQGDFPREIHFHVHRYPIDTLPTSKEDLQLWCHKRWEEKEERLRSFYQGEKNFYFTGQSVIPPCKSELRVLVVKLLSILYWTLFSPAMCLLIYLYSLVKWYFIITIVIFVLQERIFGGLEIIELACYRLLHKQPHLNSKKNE
UniProt Q86US8: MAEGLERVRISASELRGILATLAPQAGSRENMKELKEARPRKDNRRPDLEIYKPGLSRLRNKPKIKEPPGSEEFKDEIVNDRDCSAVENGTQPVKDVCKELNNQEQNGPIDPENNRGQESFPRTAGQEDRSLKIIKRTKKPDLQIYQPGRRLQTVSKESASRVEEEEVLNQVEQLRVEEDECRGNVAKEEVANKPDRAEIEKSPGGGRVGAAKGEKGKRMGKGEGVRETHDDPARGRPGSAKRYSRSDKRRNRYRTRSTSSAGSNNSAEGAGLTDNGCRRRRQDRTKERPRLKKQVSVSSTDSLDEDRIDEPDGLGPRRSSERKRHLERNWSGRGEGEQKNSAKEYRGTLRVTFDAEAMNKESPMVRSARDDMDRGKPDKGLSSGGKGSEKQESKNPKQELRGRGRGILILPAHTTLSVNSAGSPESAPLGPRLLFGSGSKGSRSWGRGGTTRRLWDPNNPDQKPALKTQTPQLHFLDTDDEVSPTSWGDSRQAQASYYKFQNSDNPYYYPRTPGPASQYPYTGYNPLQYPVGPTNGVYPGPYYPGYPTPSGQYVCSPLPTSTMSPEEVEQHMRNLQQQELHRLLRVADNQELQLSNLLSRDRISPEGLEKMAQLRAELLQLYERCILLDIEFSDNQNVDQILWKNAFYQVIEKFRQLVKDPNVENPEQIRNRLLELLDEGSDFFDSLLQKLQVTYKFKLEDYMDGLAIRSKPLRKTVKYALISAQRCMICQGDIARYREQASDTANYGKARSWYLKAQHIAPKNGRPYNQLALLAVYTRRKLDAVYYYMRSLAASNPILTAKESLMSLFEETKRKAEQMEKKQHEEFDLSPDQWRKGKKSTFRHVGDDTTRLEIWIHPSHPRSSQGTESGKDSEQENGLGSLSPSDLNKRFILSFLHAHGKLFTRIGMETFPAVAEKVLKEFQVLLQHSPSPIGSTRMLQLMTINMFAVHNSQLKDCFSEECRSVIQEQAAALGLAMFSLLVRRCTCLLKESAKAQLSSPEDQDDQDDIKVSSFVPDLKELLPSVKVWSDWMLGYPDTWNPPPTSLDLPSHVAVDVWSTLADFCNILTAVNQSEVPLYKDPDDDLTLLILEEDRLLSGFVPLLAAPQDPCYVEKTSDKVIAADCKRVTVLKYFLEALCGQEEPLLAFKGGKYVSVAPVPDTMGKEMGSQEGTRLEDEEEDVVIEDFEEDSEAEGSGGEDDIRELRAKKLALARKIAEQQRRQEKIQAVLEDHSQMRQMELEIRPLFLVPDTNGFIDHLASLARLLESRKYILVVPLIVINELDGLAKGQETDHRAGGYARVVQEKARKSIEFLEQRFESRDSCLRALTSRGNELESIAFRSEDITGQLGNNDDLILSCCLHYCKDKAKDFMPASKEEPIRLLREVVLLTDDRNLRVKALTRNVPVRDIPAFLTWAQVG
UniProt Q7L5D6: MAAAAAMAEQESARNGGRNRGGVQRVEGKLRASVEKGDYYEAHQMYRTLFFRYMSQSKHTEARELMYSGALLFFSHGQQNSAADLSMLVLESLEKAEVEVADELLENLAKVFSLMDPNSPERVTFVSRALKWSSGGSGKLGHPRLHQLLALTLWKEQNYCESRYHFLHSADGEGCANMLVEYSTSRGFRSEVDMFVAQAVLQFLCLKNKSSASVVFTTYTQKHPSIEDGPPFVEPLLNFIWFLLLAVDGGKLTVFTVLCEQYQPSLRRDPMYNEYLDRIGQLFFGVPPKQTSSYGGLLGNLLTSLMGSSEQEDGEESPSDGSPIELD
UniProt Q86UX7, whole entry: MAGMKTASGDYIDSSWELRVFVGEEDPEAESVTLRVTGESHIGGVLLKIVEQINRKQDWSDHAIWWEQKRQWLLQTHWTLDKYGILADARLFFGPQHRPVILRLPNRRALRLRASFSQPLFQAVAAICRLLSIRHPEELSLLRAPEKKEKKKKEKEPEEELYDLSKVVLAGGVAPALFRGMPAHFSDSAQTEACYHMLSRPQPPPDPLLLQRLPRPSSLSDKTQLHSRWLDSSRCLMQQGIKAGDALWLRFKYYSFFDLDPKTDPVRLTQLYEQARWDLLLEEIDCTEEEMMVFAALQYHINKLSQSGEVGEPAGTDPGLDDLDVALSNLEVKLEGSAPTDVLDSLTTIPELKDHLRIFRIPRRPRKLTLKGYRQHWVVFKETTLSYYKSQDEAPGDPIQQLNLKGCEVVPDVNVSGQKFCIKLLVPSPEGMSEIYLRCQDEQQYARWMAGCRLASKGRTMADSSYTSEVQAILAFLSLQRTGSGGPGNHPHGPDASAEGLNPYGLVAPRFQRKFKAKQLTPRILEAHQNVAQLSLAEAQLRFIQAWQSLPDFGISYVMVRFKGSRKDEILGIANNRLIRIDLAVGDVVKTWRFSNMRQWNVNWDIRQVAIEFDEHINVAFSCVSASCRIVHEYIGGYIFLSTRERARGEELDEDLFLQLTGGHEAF
UniProt Q6DKJ4: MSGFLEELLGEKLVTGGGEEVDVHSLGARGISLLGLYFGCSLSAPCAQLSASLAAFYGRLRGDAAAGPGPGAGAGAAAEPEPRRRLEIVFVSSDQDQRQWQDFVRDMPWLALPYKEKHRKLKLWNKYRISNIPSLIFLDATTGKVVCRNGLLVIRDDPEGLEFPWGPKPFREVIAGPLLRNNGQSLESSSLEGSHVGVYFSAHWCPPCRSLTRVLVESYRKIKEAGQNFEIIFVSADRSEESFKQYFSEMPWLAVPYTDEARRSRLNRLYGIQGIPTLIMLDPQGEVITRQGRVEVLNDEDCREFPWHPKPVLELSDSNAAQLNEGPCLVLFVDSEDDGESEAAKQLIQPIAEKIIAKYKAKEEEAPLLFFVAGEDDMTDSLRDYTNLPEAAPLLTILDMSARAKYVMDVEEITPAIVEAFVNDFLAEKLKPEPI
UniProt Q7LBR1: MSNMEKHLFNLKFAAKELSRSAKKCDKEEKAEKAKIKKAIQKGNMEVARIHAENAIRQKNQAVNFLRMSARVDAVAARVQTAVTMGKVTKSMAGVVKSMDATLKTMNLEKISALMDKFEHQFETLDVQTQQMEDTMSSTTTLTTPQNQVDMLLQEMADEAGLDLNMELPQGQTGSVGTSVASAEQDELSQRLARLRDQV
UniProt Q6ZN18: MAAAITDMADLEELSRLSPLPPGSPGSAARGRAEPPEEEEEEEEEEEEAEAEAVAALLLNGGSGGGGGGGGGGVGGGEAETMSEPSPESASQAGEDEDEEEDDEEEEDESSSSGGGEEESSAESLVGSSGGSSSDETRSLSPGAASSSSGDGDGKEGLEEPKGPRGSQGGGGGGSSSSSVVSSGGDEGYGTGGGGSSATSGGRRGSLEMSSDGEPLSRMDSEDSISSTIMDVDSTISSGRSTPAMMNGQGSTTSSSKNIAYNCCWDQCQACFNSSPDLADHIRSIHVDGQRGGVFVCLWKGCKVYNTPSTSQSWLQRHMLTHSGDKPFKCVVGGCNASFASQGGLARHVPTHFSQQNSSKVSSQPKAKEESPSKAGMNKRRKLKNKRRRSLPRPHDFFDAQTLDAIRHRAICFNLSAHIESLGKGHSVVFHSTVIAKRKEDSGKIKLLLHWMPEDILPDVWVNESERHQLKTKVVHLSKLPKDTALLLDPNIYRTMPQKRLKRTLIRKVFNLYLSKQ
UniProt Q5W0V3: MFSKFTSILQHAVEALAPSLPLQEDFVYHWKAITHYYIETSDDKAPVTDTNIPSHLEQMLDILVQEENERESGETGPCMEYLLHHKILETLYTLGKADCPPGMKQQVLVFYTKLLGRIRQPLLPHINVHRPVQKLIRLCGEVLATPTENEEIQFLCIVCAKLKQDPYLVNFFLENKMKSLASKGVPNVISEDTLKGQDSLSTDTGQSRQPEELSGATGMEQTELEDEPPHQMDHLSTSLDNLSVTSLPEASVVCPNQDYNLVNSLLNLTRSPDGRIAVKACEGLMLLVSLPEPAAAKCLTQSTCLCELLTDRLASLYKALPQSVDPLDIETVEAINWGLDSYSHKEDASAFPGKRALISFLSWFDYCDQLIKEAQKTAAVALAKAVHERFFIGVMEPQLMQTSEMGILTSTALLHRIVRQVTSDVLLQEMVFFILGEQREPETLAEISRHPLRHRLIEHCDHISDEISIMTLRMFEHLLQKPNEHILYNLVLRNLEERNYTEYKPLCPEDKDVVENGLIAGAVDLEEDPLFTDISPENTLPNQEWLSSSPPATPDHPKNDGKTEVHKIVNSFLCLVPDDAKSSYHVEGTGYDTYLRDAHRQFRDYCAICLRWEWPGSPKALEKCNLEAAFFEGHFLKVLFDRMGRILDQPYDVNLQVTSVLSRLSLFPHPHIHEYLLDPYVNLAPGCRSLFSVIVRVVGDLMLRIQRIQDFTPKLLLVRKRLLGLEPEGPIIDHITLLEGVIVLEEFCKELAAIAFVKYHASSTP
UniProt Q86VS8: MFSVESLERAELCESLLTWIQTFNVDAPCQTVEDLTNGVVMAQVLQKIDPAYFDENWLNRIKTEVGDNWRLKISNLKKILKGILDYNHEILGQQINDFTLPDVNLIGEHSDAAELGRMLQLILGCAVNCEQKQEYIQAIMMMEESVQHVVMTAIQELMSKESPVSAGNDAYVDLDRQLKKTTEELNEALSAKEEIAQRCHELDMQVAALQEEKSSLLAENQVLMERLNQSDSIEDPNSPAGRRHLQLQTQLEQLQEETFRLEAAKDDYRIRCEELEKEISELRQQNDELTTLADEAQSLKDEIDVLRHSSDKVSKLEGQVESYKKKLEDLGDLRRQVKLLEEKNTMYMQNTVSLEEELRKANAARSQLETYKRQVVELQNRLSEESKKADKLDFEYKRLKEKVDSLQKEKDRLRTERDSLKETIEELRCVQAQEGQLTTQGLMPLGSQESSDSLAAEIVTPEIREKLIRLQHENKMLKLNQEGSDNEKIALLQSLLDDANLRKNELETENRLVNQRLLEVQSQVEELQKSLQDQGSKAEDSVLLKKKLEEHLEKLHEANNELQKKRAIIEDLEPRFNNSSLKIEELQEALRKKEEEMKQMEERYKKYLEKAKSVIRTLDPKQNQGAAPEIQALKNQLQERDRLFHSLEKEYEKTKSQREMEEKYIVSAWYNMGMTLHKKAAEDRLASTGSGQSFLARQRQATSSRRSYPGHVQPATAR
UniProt Q7Z392: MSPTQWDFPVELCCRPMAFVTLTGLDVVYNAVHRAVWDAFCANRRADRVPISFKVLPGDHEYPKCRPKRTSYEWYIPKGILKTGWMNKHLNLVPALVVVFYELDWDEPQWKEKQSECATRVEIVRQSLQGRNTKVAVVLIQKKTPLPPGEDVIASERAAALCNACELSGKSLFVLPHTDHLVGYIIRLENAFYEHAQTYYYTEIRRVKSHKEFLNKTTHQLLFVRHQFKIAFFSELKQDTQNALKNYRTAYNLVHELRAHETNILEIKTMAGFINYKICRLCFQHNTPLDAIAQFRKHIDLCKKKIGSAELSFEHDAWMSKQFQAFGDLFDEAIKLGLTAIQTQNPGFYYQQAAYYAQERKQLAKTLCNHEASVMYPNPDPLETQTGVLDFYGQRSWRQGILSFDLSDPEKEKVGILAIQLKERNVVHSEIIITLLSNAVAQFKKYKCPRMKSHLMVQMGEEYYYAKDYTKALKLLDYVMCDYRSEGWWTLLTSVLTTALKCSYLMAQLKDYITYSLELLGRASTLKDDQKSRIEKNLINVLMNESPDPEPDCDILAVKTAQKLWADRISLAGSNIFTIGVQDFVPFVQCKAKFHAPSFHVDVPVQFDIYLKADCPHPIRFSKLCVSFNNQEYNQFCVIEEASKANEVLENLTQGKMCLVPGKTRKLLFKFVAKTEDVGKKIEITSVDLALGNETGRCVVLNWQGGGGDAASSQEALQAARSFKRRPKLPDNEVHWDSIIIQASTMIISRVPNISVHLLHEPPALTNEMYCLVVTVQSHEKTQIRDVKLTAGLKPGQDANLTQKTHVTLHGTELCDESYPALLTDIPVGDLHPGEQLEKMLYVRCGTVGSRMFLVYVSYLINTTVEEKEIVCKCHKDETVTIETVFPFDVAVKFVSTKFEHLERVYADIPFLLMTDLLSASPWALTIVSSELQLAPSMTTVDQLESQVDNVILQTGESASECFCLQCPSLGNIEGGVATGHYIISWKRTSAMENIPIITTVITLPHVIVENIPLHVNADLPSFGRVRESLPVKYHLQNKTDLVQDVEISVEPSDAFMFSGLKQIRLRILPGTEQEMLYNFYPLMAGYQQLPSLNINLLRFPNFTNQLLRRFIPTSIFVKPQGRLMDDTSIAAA

Compound: Nc1nc2c(ncn2[C@@H]2O[C@H](COP(=O)(O)OP(=O)(O)OP(=O)(O)O)[C@@H](O)[C@H]2O)c(=O)[nH]1 [guanosine triphosphate]
Assay: NP40-soluble protein abundance relative to vehicle (solubility fold change) (ratio); higher = more soluble protein in presence of GTP
Procedure, shortened: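 Eight concentrations, 0.1 to 10 mM, were tested on Jurkat crude lysate for 10 min at room temperature and then 3 min at 37 °C, in three independent experiments. The lysate was solubilised with 0.8% NP40 and benzonase, ultracentrifuged, and the supernatant TMT-labelled for LC-MS/MS. Each value is the fold change against the detergent-processed vehicle in its own replicate, from vsn-normalised intensities.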

Target	NP40-soluble protein abundance (concentration: 0.1mM)	NP40-soluble protein abundance (concentration: 0.5mM)	NP40-soluble protein abundance (concentration: 1mM)	NP40-soluble protein abundance (concentration: 2mM)	NP40-soluble protein abundance (concentration: 4mM)	NP40-soluble protein abundance (concentration: 6mM)	NP40-soluble protein abundance (concentration: 8mM)	NP40-soluble protein abundance (concentration: 10mM)
UniProt Q6UWP7 and related entries	1.12 ± 0.086	1.14 ± 0.15	1.03 ± 0.025	1.11 ± 0.065	0.991 ± 0.061	1.02 ± 0.11	0.968 ± 0.082	0.991 ± 0.13
Q5VVQ1 and related entries (UniProt Q99598)	0.973 ± 0.012	0.994 ± 0.024	0.938 ± 0.015	0.933 ± 0.03	0.9215 ± 0.0076	0.934 ± 0.026	0.91 ± 0.021	0.9 ± 0.017
UBE2Q1 (UniProt Q7Z7E8)	0.968 ± 0.062	0.953 ± 0.044	0.929 ± 0.064	0.922 ± 0.048	0.88 ± 0.055	0.912 ± 0.077	0.874 ± 0.071	0.886 ± 0.056
CEP135 (UniProt Q66GS9)	1.01 ± 0.078	1.02 ± 0.065	1.08 ± 0.096	1 ± 0.15	0.991 ± 0.14	1.01 ± 0.081	0.963 ± 0.15	0.956 ± 0.18
UniProt Q5XPI4 and related entries	1.07 ± 0.071	1.09 ± 0.15	1.04 ± 0.11	1.08 ± 0.087	0.982 ± 0.1	1.01 ± 0.082	0.973 ± 0.11	0.989 ± 0.12
SMG6 (UniProt Q86US8)	1.11 ± 0.016	1.14 ± 0.077	1.17 ± 0.031	1.15 ± 0.071	1.23 ± 0.037	1.15 ± 0.032	1.25 ± 0.038	1.18 ± 0.012
UniProt Q7L5D6 and related entries	1.03 ± 0.056	0.98 ± 0.091	0.94 ± 0.047	0.975 ± 0.11	0.963 ± 0.12	0.986 ± 0.1	0.868 ± 0.053	0.887 ± 0.12
UniProt Q86UX7 and related entries	1.07 ± 0.067	1.05 ± 0.11	0.935 ± 0.067	0.959 ± 0.14	0.968 ± 0.11	0.92 ± 0.096	0.865 ± 0.058	0.837 ± 0.1
UniProt Q66K14 and related entries	1.04 ± 0.022	1.04 ± 0.068	1.008 ± 0.0063	1.01 ± 0.043	0.988 ± 0.06	0.963 ± 0.054	0.969 ± 0.018	0.934 ± 0.068
UniProt Q6P2H3 and related entries	0.964 ± 0.015	0.96 ± 0.1	1.06 ± 0.065	1.06 ± 0.1	1.03 ± 0.069	1.03 ± 0.07	1.11 ± 0.016	1.13 ± 0.047
NXN (UniProt Q6DKJ4)	1.07 ± 0.082	1.04 ± 0.044	1.05 ± 0.064	0.994 ± 0.071	0.969 ± 0.068	1.01 ± 0.04	1 ± 0.092	0.925 ± 0.043
CHMP1B (UniProt Q7LBR1)	0.84 ± 0.038	0.797 ± 0.064	0.957 ± 0.03	0.938 ± 0.059	0.911 ± 0.046	0.922 ± 0.075	0.858 ± 0.1	0.94 ± 0.036
UniProt Q7LBC6	1.04 ± 0.063	1.01 ± 0.049	0.981 ± 0.06	0.99 ± 0.065	0.952 ± 0.039	0.96 ± 0.066	0.992 ± 0.03	0.986 ± 0.053
UniProt Q86V88 and related entries	0.975 ± 0.052	0.901 ± 0.079	0.953 ± 0.11	0.872 ± 0.064	0.869 ± 0.048	0.839 ± 0.089	0.858 ± 0.058	0.88 ± 0.078
UniProt Q7Z3U7 and related entries	1.17 ± 0.26	1.2 ± 0.29	1.17 ± 0.19	1.18 ± 0.22	1.13 ± 0.28	1.12 ± 0.25	1.21 ± 0.17	1.12 ± 0.18
UniProt Q6ZN18 and related entries	1.02 ± 0.17	1.07 ± 0.08	1.08 ± 0.12	1.01 ± 0.37	1.07 ± 0.02	1.04 ± 0.085	1.11 ± 0.16	1.01 ± 0.31
SMYD5 (UniProt Q6GMV2)	1.12 ± 0.086	0.983 ± 0.1	0.992 ± 0.023	0.96 ± 0.085	1.05 ± 0.14	0.92 ± 0.055	0.959 ± 0.068	0.883 ± 0.019
CYFIP1 (UniProt Q7L576)	1.14 ± 0.13	1.13 ± 0.1	0.964 ± 0.12	1.02 ± 0.29	1.07 ± 0.15	1.02 ± 0.15	0.948 ± 0.066	0.955 ± 0.15
FAM160B1 (UniProt Q5W0V3)	1.03 ± 0.037	1.03 ± 0.027	0.964 ± 0.029	0.959 ± 0.02	0.9389 ± 0.0083	0.922 ± 0.0022	0.91 ± 0.033	0.894 ± 0.051
RCSD1 (UniProt Q6JBY9)	1.05 ± 0.051	1.01 ± 0.062	1.01 ± 0.11	0.857 ± 0.11	0.854 ± 0.12	0.828 ± 0.11	0.954 ± 0.1	0.894 ± 0.12
UniProt Q5VSL9	1 ± 0.03	1 ± 0.041	1.05 ± 0.023	1.08 ± 0.038	1.09 ± 0.044	1.06 ± 0.021	1.14 ± 0.047	1.13 ± 0.057
HOOK3 (UniProt Q86VS8)	0.896 ± 0.025	0.854 ± 0.079	0.968 ± 0.017	0.948 ± 0.084	0.959 ± 0.053	0.971 ± 0.064	0.919 ± 0.099	1.04 ± 0.027
UniProt Q5VYS8 and related entries	1.04 ± 0.02	1.08 ± 0.058	1.08 ± 0.046	1.11 ± 0.017	1.09 ± 0.044	1.1 ± 0.021	1.16 ± 0.066	1.12 ± 0.074
UniProt Q86WA8 and related entries	1.09 ± 0.072	1.09 ± 0.084	1.04 ± 0.079	1.01 ± 0.12	1.02 ± 0.17	0.932 ± 0.12	0.967 ± 0.1	0.966 ± 0.063
TRAPPC6B (UniProt Q86SZ2)	1.06 ± 0.015	0.988 ± 0.077	0.954 ± 0.058	0.997 ± 0.092	0.999 ± 0.049	0.963 ± 0.088	0.885 ± 0.017	0.958 ± 0.065
UniProt Q6ZMI0 and related entries	0.995 ± 0.052	0.969 ± 0.027	1.02 ± 0.027	0.992 ± 0.025	0.973 ± 0.011	0.961 ± 0.051	0.967 ± 0.094	0.988 ± 0.033
UniProt Q7L1Q6 and related entries	0.936 ± 0.038	0.917 ± 0.024	0.92 ± 0.043	0.885 ± 0.044	0.869 ± 0.062	0.864 ± 0.06	0.842 ± 0.077	0.838 ± 0.064
UniProt Q7Z2E3 and related entries	1.06 ± 0.074	1.05 ± 0.08	1.02 ± 0.067	1.13 ± 0.089	1.17 ± 0.079	1.22 ± 0.19	1.21 ± 0.11	1.24 ± 0.094
ATAD2 (UniProt Q6PL18)	1.15 ± 0.052	1.2 ± 0.036	1.29 ± 0.075	1.22 ± 0.076	1.21 ± 0.12	1.17 ± 0.061	1.17 ± 0.14	1.21 ± 0.15
UniProt Q7Z392 and related entries	1.13 ± 0.18	1.14 ± 0.23	1.11 ± 0.14	1.12 ± 0.21	1.11 ± 0.15	1.05 ± 0.19	1.09 ± 0.15	1.02 ± 0.16

Two records picked at random from the list so far, as already listed:
Target	NP40-soluble protein abundance (concentration: 0.1mM)	NP40-soluble protein abundance (concentration: 0.5mM)	NP40-soluble protein abundance (concentration: 1mM)	NP40-soluble protein abundance (concentration: 2mM)	NP40-soluble protein abundance (concentration: 4mM)	NP40-soluble protein abundance (concentration: 6mM)	NP40-soluble protein abundance (concentration: 8mM)	NP40-soluble protein abundance (concentration: 10mM)
SMYD5 (UniProt Q6GMV2)	1.12 ± 0.086	0.983 ± 0.1	0.992 ± 0.023	0.96 ± 0.085	1.05 ± 0.14	0.92 ± 0.055	0.959 ± 0.068	0.883 ± 0.019
RCSD1 (UniProt Q6JBY9)	1.05 ± 0.051	1.01 ± 0.062	1.01 ± 0.11	0.857 ± 0.11	0.854 ± 0.12	0.828 ± 0.11	0.954 ± 0.1	0.894 ± 0.12
